# Test results from the supplement of paper PMC12595434, “Development of retinoid nuclear receptor pathway antagonists through targeting aldehyde dehydrogenase 1A3” (iScience, 2025).
# The chains behind the UniProt entries cited, without tags or fusion partners. Where a name states a change or a piece, a line headed by the entry shows the natural chain unless it says otherwise.
# UniProt Q96BM9: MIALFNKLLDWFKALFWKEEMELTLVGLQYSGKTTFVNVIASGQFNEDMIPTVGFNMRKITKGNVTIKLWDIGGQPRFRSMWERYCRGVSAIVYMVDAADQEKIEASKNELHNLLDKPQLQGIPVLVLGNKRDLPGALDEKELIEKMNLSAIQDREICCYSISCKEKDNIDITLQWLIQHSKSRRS
# UniProt Q92796: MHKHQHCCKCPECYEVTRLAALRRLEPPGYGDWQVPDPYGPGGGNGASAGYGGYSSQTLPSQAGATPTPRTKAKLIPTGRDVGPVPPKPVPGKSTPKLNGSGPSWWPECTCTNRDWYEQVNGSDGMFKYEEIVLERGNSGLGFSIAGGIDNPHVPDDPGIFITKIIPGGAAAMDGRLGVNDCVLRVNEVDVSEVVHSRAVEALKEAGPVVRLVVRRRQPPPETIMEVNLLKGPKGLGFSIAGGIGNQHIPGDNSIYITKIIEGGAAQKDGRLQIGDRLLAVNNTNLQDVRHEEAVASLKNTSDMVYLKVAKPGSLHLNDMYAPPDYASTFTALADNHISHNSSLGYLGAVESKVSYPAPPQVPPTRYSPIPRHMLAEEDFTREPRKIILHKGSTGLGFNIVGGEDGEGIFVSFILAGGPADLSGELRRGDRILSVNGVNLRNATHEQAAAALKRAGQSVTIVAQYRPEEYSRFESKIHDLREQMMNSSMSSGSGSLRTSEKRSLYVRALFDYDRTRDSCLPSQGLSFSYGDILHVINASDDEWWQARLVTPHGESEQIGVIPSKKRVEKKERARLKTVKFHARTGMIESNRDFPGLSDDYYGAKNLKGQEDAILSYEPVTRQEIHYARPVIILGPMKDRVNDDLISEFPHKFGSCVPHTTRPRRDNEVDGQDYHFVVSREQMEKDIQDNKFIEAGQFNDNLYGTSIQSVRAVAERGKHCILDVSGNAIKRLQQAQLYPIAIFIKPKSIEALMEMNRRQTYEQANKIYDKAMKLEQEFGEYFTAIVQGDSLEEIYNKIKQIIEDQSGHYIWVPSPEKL
# UniProt Q8WW33: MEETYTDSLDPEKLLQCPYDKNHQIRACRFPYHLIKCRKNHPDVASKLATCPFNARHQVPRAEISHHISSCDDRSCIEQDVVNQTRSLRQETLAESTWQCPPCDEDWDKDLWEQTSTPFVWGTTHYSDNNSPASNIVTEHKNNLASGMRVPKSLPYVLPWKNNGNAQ
# UniProt Q969G3, whole entry: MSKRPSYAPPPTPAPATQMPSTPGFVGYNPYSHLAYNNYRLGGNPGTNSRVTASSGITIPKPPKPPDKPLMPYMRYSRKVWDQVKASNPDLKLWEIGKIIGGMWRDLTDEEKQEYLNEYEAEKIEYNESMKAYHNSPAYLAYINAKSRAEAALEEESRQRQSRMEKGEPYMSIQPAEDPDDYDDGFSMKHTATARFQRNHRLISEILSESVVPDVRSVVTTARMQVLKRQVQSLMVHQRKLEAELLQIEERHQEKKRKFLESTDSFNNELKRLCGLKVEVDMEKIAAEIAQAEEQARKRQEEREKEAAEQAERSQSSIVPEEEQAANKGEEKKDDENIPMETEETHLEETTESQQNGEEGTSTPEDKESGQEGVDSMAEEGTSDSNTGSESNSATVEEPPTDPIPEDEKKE
# UniProt Q96CM3: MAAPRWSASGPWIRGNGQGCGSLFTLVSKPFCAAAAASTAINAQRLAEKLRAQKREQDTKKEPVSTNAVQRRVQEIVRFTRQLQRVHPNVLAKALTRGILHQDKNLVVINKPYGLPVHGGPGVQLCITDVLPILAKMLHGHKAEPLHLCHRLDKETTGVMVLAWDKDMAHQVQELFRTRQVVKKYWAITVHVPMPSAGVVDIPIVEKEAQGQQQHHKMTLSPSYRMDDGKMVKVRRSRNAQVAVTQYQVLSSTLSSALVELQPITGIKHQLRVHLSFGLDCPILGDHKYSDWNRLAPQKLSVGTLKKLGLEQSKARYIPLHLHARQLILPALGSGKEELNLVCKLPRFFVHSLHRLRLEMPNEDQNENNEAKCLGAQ
# UniProt Q8WXW3: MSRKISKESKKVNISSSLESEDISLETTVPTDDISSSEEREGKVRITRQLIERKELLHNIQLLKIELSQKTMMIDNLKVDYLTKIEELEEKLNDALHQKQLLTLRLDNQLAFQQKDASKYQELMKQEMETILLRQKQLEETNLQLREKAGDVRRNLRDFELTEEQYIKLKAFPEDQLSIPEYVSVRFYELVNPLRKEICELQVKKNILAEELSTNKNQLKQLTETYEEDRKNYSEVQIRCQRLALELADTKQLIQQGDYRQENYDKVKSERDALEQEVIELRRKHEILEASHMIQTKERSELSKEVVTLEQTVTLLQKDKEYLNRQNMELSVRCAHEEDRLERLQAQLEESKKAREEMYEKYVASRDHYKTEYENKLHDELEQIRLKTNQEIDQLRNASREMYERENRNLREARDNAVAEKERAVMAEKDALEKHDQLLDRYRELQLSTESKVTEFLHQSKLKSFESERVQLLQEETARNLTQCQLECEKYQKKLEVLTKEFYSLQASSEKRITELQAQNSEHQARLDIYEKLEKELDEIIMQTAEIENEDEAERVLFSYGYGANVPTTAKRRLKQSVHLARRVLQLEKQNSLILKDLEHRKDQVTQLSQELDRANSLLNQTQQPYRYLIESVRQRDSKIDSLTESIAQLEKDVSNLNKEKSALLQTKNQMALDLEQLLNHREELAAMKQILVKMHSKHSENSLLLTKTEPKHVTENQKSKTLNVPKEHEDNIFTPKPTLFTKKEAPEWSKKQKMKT
# UniProt Q92600, whole entry: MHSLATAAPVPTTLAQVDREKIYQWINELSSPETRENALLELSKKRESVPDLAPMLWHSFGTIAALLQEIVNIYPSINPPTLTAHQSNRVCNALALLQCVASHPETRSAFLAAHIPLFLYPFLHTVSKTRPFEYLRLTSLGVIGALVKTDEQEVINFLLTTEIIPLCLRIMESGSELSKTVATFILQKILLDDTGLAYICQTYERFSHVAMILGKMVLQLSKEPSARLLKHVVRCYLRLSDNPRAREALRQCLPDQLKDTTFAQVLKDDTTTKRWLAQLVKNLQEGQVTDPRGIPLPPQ
# UniProt Q96BT3, whole entry: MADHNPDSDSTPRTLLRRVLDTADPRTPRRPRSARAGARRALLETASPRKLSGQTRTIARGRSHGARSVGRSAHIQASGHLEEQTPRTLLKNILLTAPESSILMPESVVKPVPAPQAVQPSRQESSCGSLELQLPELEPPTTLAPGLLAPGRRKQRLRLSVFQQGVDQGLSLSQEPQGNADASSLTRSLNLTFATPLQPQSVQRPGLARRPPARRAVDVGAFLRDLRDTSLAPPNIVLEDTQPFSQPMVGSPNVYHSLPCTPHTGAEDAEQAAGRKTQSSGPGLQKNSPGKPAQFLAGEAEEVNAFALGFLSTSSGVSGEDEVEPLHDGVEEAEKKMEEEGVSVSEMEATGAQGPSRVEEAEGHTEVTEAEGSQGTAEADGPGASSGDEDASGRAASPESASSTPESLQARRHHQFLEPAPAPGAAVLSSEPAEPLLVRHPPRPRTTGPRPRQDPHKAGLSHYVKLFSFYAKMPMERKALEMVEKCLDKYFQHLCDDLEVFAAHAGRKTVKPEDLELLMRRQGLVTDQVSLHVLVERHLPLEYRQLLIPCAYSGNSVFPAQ
# UniProt Q969G6: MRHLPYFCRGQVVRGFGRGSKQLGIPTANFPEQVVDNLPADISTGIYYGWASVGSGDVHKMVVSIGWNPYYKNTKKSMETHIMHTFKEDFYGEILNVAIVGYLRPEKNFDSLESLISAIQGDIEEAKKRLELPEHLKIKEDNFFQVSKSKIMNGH
# UniProt Q92797: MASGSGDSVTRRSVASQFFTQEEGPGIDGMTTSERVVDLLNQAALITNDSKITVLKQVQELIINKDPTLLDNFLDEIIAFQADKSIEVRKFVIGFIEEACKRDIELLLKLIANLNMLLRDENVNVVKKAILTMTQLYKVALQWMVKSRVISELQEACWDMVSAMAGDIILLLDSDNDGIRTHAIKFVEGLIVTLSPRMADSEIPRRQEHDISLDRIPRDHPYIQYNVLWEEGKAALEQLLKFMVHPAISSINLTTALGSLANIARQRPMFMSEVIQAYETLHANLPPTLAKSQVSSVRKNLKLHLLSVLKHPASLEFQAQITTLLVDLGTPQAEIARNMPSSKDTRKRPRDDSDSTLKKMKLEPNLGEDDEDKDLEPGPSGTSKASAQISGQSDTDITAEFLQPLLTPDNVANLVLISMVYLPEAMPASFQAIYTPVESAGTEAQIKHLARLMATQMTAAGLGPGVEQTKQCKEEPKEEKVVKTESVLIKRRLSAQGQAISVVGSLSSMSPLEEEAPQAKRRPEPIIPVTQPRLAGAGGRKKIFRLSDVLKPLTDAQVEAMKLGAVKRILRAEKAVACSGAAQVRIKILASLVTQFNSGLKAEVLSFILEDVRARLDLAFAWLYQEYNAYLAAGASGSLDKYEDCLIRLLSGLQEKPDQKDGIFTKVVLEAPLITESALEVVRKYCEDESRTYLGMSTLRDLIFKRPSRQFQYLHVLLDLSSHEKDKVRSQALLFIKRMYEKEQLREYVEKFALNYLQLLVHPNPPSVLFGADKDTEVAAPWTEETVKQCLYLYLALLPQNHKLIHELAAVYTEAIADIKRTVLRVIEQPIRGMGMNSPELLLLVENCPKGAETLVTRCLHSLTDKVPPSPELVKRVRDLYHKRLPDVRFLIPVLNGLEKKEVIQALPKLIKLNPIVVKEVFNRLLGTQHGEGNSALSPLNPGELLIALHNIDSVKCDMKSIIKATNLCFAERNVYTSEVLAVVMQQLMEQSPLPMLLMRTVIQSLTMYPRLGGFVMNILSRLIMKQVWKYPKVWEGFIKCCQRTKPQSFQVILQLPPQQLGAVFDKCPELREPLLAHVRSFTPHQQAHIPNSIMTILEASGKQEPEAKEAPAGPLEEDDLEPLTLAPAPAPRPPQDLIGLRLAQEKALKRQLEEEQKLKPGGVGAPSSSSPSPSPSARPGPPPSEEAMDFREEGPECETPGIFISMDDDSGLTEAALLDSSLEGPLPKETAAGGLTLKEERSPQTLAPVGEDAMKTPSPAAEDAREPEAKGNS
# UniProt Q969V5: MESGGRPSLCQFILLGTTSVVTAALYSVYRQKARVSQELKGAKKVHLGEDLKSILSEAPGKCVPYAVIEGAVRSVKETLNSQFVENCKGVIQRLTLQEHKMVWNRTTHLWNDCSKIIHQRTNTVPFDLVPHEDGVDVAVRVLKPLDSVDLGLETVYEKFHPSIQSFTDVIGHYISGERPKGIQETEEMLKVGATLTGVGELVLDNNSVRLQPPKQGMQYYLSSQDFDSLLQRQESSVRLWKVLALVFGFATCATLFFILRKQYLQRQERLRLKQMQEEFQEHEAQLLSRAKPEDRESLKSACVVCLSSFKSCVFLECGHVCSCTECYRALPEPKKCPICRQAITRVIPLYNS
# UniProt Q8WYQ5: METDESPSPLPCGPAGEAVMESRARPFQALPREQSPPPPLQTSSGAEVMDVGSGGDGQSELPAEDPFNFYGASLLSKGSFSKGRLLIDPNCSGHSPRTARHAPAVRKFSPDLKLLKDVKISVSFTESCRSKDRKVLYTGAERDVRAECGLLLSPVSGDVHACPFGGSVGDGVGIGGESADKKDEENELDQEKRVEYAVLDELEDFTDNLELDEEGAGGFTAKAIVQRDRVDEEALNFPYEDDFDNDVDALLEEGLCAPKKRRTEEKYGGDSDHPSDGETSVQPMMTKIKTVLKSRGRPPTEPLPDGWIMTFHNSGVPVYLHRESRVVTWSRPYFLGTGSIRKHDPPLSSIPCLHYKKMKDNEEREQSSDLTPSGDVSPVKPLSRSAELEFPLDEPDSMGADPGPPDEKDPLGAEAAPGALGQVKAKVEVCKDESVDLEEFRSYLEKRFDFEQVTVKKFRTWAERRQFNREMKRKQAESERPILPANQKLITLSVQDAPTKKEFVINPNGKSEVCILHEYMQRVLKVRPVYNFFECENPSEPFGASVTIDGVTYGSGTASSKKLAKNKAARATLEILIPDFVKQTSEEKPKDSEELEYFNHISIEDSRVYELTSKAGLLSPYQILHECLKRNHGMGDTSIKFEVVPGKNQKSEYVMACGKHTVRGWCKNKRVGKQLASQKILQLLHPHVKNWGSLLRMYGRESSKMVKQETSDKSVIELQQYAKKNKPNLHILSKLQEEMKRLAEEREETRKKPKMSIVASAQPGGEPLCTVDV
# UniProt Q96BW1: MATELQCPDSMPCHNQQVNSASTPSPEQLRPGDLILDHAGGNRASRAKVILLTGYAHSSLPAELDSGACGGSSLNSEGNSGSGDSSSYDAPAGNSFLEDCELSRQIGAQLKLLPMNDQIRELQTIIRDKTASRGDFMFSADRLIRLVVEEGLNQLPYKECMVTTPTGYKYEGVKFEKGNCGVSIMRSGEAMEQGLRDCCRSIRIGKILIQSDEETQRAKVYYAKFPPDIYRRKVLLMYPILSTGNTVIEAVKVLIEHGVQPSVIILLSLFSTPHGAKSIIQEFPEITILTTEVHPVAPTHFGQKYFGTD
# The list shows a part of the results. This is a noisy data set.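 Many melting curves are irregular; where none melted, Tm was taken as 64 °C.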
# Compound: CCc1cnccc1C(=O)Nc1cc2c(cc1F)NC(=O)CC2
# Experiment: melting temperature shift (DMSO Tm minus MBE1-treated Tm) in cellular thermal proteome profiling; higher = less thermal stabilization by MBE1 (negative = stabilized by MBE1)
# Settings: A375; MBE1 concentration: 100 nM
row,Target,melting temperature shift
1,UniProt Q92674,-1.49 °C
2,MRPL24 (UniProt Q96A35),0.696 °C
3,ARL8A (UniProt Q96BM9),-2.14 °C
4,UniProt Q92928,-3.95 °C

# Same assay, conditions: A375; MBE1 concentration: 1 uM
row,Target,melting temperature shift
1,NUDT16 (UniProt Q96DE0),1.55 °C
2,ERGIC1 (UniProt Q969X5),-0.482 °C
3,DLG3 (UniProt Q92796),0.0183 °C
4,UniProt Q8WW33,-3.48 °C
5,CCDC124 (UniProt Q96CT7),-2.95 °C
6,KIF1BP (UniProt Q96EK5),-0.538 °C
7,ATG2B (UniProt Q96BY7),0.912 °C
8,SMARCE1 (UniProt Q969G3),-0.404 °C
9,RPUSD4 (UniProt Q96CM3),0.852 °C
10,PIBF1 (UniProt Q8WXW3),-0.299 °C
11,EXOC4 (UniProt Q96A65),-0.729 °C
12,DPF2 (UniProt Q92785),-0.391 °C
13,UniProt Q96A29,0.112 °C
14,RQCD1 (UniProt Q92600),0.232 °C
15,UniProt Q96BT3,-0.733 °C
16,UniProt Q92562,0.11 °C
17,RPE (UniProt Q96AT9),0.235 °C
18,UniProt Q96DE5,0.305 °C
19,DOCK10 (UniProt Q96BY6),1.6 °C

row,Target,melting temperature shift
1,RFK (UniProt Q969G6),0.203 °C
2,SYMPK (UniProt Q92797),0.0448 °C
3,MUL1 (UniProt Q969V5),1.65 °C
4,UniProt Q969R5,-1.12 °C
5,UniProt Q96E39,0.159 °C
6,TAF15 (UniProt Q92804),1.59 °C
7,TSC1 (UniProt Q92574),-1.39 °C
8,UniProt Q8WYQ5,-1.09 °C
9,MRRF (UniProt Q96E11),-0.385 °C
10,UniProt Q93075,-2.53 °C
11,SMARCD2 (UniProt Q92925),-0.0833 °C
12,MRPS31 (UniProt Q92665),-0.421 °C
13,UPRT (UniProt Q96BW1),0.543 °C
14,MED12 (UniProt Q93074),-0.0941 °C
15,UniProt Q92674,3.86 °C
16,MRPL24 (UniProt Q96A35),-0.983 °C
17,ARL8A (UniProt Q96BM9),11.3 °C
18,UniProt Q92928,4.91 °C
